Values quoted from earlier work in patent US20140037700A1, “Composition and Method for Enhancing an Immune Response” (priority 2011, published 2014).
At least one structure is not confirmed: it was looked up by name or label, or the drawing left a doubt.

Test system: Mycobacterium tuberculosis strain H37Rv

For `CC1=C(/C=C/C(C)=C/C=C/C(C)=C/C(=O)O)C(C)(C)CCC1` [RA, retinoic acid], the “number of colony-forming units (CFU)” value (lung and spleen at 3 and 5 wk after H37Rv infection, oral) is given as “decreased”, the “in vivo growth of M. tuberculosis” value (orally administered) is given as “significantly inhibits” and the “CD4-positive and CD8-positive T cells, natural killer cells, CD163-positive macrophages in infected lung tissues” value (orally treated rats) is given as “increased”. The “severity of tuberculosis histopathology” value (rats, oral 3 times weekly, 3 and 5 weeks post infection, vs control) was “significant difference in the severity”.
